Test results as given in the supplement of paper PMC6078165.
The reference is the same well before dosing, and untreated signal decays as well.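 Fibroblast labels name human fibroblasts: mostly primary ones from tissues such as uterus (C12385, HUF), lung (H6013), bone (Hs27A), adrenal (HADF) and skin (WS1), plus mammary HMF and breast cancer-associated Hs343T. The cancer cells are basal-like or mesenchymal-like triple-negative breast cancer lines. The paper calls a changed response a hit when it shifts by more than 3x the replicate standard deviation. The tissue of the other fibroblasts is not given here.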

Test system: MDAMB468
Test: relative JC-1 red fluorescence (viability) vs pre-drug, coculture with fibroblast (fraction); higher = more viable cancer cells
Method: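 JC-1 labelled TNBC cells cocultured 1:1 (1,500 cells each) with CellTrace Violet stained primary or stromal fibroblasts in 384-well plates in FluoroBrite medium, treated with one of 42 anticancer drugs at 0.1, 1, 10 or 100 uM. JC-1 red fluorescence (mitochondrial integrity in cancer cells only) was read by plate reader every 8 h for 72 h. Values are normalised to each well's pre-drug value. The stock of one drug was tenfold lower, so its dose labels may be too high.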

CC(=O)O[C@@]12CO[C@@H]1C[C@H](O)[C@@]1(C)C(=O)[C@H](O)C3=C(C)[C@@H](OC(=O)[C@H](O)[C@@H](NC(=O)OC(C)(C)C)c4ccccc4)C[C@@](O)([C@@H](OC(=O)c4ccccc4)[C@H]21)C3(C)C [Docetaxel]
relative JC-1 red fluorescence
Details	8 h	16 h	24 h	32 h	40 h	48 h	56 h	64 h	72 h
0.1 µM, coculture fibroblast: C12385	0.864	0.798	0.778	0.728	0.684	0.671	0.627	0.619	0.622
0.1 µM, coculture fibroblast: H6013	0.8565	0.87871	0.837	0.831	0.784	0.789	0.763	0.755	0.692
0.1 µM, coculture fibroblast: H6019	0.81746	0.803	0.773	0.732	0.716	0.72	0.679	0.661	0.66
0.1 µM, coculture fibroblast: H6076	0.9122	0.958	0.8893	0.858	0.787	0.76	0.692	0.6582	0.674
0.1 µM, coculture fibroblast: H6231	0.828	0.909	0.81	0.821	0.752	0.726	0.67	0.633	0.636
0.1 µM, coculture fibroblast: HADF	0.879	0.8382	0.787	0.774	0.717	0.703	0.645	0.636	0.576
0.1 µM, coculture fibroblast: HCFa	0.845	0.827	0.768	0.716	0.652	0.639	0.575	0.538	0.48
0.1 µM, coculture fibroblast: HCPF	0.893	0.915	0.8786	0.89	0.792	0.764	0.69	0.666	0.656
0.1 µM, coculture fibroblast: HHSteC	0.865	0.8449	0.809	0.756	0.702	0.702	0.619	0.5843	0.52268
0.1 µM, coculture fibroblast: HMF	0.859	0.989	0.893	0.857	0.7571	0.7229	0.644	0.612	0.581
0.1 µM, coculture fibroblast: HPFa	0.949	0.902	0.859	0.795	0.774	0.765	0.699	0.693	0.615
0.1 µM, coculture fibroblast: HUF	0.9076	0.805	0.728	0.648	0.5954	0.569	0.5177	0.49724	0.4822
0.1 µM, coculture fibroblast: Hs5	0.888	0.973	0.935	0.91	0.825	0.767	0.698	0.663	0.673
0.1 µM, coculture fibroblast: Hs27A	0.858	0.82	0.756	0.748	0.678	0.6704	0.6436	0.6294	0.59
0.1 µM, coculture fibroblast: Hs343T	0.8673	0.937	0.867	0.8414	0.7538	0.726	0.665	0.639	0.604
0.1 µM, coculture fibroblast: WS1	0.83	0.7616	0.699	0.632	0.563	0.527	0.494	0.468	0.46
1 µM, coculture fibroblast: C12385	0.88	0.849	0.782	0.7289	0.676	0.672	0.633	0.607	0.598
1 µM, coculture fibroblast: H6013	0.8947	0.8394	0.834	0.817	0.7869	0.8002	0.782	0.7781	0.722
1 µM, coculture fibroblast: H6019	0.859	0.8011	0.7984	0.77037	0.7509	0.754	0.707	0.698	0.694
1 µM, coculture fibroblast: H6076	0.925	0.933	0.887	0.912	0.834	0.832	0.788	0.76	0.827
1 µM, coculture fibroblast: H6231	0.825	0.8901	0.801	0.789	0.7024	0.686	0.6279	0.6104	0.609
1 µM, coculture fibroblast: HADF	0.932	0.844	0.849	0.824	0.78	0.769	0.729	0.711	0.644
1 µM, coculture fibroblast: HCFa	0.881	0.832	0.781	0.775	0.705	0.702	0.639	0.603	0.541
1 µM, coculture fibroblast: HCPF	0.902	0.952	0.847	0.855	0.7769	0.749	0.689	0.676	0.665
1 µM, coculture fibroblast: HHSteC	0.931	0.874	0.856	0.814	0.774	0.777	0.699	0.678	0.62
1 µM, coculture fibroblast: HMF	0.852	0.938	0.872	0.847	0.765	0.745	0.673	0.645	0.626
1 µM, coculture fibroblast: HPFa	0.952	0.94277	0.892	0.839	0.813	0.827	0.765	0.759	0.688
1 µM, coculture fibroblast: HUF	0.908	0.802	0.728	0.648	0.587	0.567	0.515	0.494	0.474
1 µM, coculture fibroblast: Hs5	0.805	0.975	0.934	0.914	0.84	0.793	0.745	0.701	0.727
1 µM, coculture fibroblast: Hs27A	0.891	0.8406	0.849	0.859	0.826	0.833	0.825	0.838	0.78
1 µM, coculture fibroblast: Hs343T	0.852	0.86	0.84	0.853	0.769	0.752	0.699	0.673	0.676
1 µM, coculture fibroblast: WS1	0.8735	0.796	0.7381	0.677	0.638	0.62	0.593	0.577	0.581
